# Data taken from PubChem BioAssay AID2685 (National Center for Advancing Translational Sciences (NCATS), 2010).
# This is one part of the list. The main result of the screen is listed elsewhere. These columns were measured beside it and carry no call. Compounds called inactive in the main read-out are mostly missing here. Potencies come from curve fits of mixed quality, noted in brackets.
# Test: qHTS Assay for Lipid Storage Modulators in Drosophila S3 Cells;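 on cell number change: cells counted by Cell Tracker Red CMTPX staining in the red channel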
# Details: BODIPY lipid droplet fluorescence, 18-24 h; for cell number change: measured here: cell count max response, cells fed with added oleic acid
# Method in brief: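 Drosophila S3 cells got compounds at several concentrations plus oleic acid (400 uM solution). Laser-scanning cytometry with 488 nm excitation read lipid droplets at 500-530 nm and cells at 575-640 nm. Percent activity was relative to 20 uM Triacsin C.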
# [1] = measured here: cell number channel AC50, cells fed with added oleic acid
# [2] = measured here: lipid fluorescence (Fed channel) AC50, cells fed with added oleic acid
SMILES,cell number change [%],AC50 [1],AC50 [2]
COc1ccc(-c2cc(C(=O)OCC(=O)N(C)C)c3ccccc3n2)cc1,19.6,"0.92 µM [rising, partial curve]","0.517 µM [rising, full curve]"
CCCCN(CCCNC(=O)Cn1nc(CC)n2c(cc3sc(C)cc32)c1=O)Cc1ccccc1,34.6,–,–
CC(Sc1n[nH]c(N)n1)C(=O)C12CC3CC(CC(C3)C1)C2 (configuration not stated),–,"0.731 µM [rising, single point]","0.651 µM [rising, single point]"
O=C(NNC(=O)C1CCN(Cc2cccc(F)c2)CC1)c1cccs1,20.6,–,"16.4 µM [rising, single point]"
CC(C)CCNc1ncnc2c1nnn2Cc1ccccc1,3.16,–,–
O=C(Nc1ncccc1Cl)C(Sc1ccccc1)c1ccccc1 (configuration not stated),-19.2,–,"29.1 µM [falling, single point]"
O=C(NCCCn1ccnc1)c1cc(-c2cccnc2)nc2ccc(Br)cc12,164,–,–
COCCn1nnnc1C(c1cccs1)N1CCN(c2cccc(C(F)(F)F)c2)CC1 (configuration not stated),4.3,–,"25.9 µM [rising, single point]"
O=C(/C=C/c1ccccc1)c1ccccn1,-46.3,"23.1 µM [falling, single point]","32.6 µM [falling, single point]"
O=C(CSc1nc(-c2ccco2)cc(C(F)(F)F)n1)Nc1ccccc1C(F)(F)F,-33.3,"7.31 µM [falling, partial curve]","9.2 µM [falling, partial curve]"
Cc1cc(Cl)ccc1OCC(=O)NCCOc1nc(N2CCCCC2)nc(N2CCOCC2)n1,–,–,"5.17 µM [rising, full curve]"
Cn1c(=O)n(CC(=O)O)c(=O)c2c1nc1n2CCCN1CCc1ccccc1,6.08,–,"0.259 µM [rising, full curve]"
CCN(CC)S(=O)(=O)c1ccc(/C=C/C(=O)OCC(=O)NCc2cccs2)cc1,-43.7,"32.6 µM [falling, partial curve]","0.731 µM [falling, full curve]"
O=C(Nc1ncc2c(n1)CC(c1ccc(Cl)cc1)CC2=O)c1ccco1 (configuration not stated),7.98,–,–
COc1cccc(CN(C)C(=O)c2ccc(C)c(S(=O)(=O)N3CCCCC3)c2)c1,11.5,"0.13 µM [falling, full curve, poor fit]","0.082 µM [falling, full curve, poor fit]"
COc1ccsc1NC(=O)OCc1ccc(Cl)cc1,32.2,"11.6 µM [rising, partial curve]","9.2 µM [rising, partial curve]"
Cc1cccc(-c2n[nH]c(=S)n2Cc2ccccc2)c1,-44.4,"20.6 µM [falling, single point]","20.6 µM [falling, single point]"
Cc1cccc(N2CCN(C(c3ccncc3)c3nnnn3C(C)(C)C)CC2)c1C (configuration not stated),38.2,"5.17 µM [rising, partial curve]","29.1 µM [rising, single point]"
COc1cc2[nH]c(C(=O)NCc3ccccc3)cc2c(OC)c1OC,55.6,"11.6 µM [rising, partial curve]",–
CCC(N=c1cc(-c2ccc(OC)c(OC)c2)oc2ccc(C)cc12)C(=O)O (configuration not stated),5.19,–,"29.1 µM [falling, single point]"
COC(=O)c1ccc(NC(=O)c2ccccc2)o1,-39.8,"18.4 µM [falling, single point]","16.4 µM [falling, single point]"
COc1ccc(/C=C/C(=O)NCC(=O)N/N=C(/C)c2ccc(Cl)cc2)cc1,24.8,–,"2.31 µM [rising, full curve, poor fit]"
CN1CCN(C(=O)c2ccc3c(c2)NC(=O)/C(=C/c2ccccc2)S3)CC1,-15.3,–,–
Cc1ccc(C)c(S(=O)(=O)N2CCN(C(=O)CCc3c[nH]c4ccccc34)CC2)c1,-6.61,"1.84 µM [rising, partial curve, poor fit]","3.26 µM [rising, single point]"
COc1cc(/C=N/Nc2nn3cnnc3c3ccccc23)ccc1O,-16.6,–,"29.1 µM [falling, single point]"
O=C1C=C(c2ccc(F)cc2OCc2ccccc2)C[C@@H](c2ccc(Cl)cc2)C1,19.2,–,–
CCOC(=O)C1CCN(C(=O)COc2ccc(Cl)cc2Cl)CC1,0.338,–,"0.291 µM [rising, full curve]"

# Part of the list above, as tab-separated lines.
SMILES	cell number change [%]	AC50 [1]	AC50 [2]
O=C(CSc1nc(-c2ccco2)cc(C(F)(F)F)n1)Nc1ccccc1C(F)(F)F	-33.3	7.31 µM [falling, partial curve]	9.2 µM [falling, partial curve]
O=C1C=C(c2ccc(F)cc2OCc2ccccc2)C[C@@H](c2ccc(Cl)cc2)C1	19.2	–	–
